# According to paper PMC2093940:
# Protein sequences, listed by entry. Tags and fused reporters are not part of them. Lines headed by an entry give the natural chain unless they say otherwise; changes in a name come on top.
# UniProt O75364: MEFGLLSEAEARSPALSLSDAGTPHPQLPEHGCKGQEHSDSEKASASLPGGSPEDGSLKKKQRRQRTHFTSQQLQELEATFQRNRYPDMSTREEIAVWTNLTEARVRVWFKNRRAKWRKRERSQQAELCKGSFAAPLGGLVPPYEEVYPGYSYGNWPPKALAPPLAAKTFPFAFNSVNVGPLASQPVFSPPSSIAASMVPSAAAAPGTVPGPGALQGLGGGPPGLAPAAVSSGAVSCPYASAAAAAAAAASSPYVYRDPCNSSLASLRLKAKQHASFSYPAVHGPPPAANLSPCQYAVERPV
# Molecular target: PITX3 G219fs (Homo sapiens) (UniProt O75364)
# Assay: EMSA
# Details: poly[d(I-C)], monomer binding retained, two main low-mobility complexes absent; LightShift kit binding buffer (composition and pH not given), 50 ng/ul poly[d(I-C)], 20 fmol probe, RT 15 min (30 min with antibody), 5% PAGE in 1x TBE; protein in a lysate after overexpression; residues 1-218; protein details: C-terminal c-Myc and His vector, called myc-tagged; label: 3' biotin
sequence,measurement,value
GATCCTAATCCCGTCGCGTCGTAATCCGGATC (double strand) [bicoid probe (Bcd 2x 10n)],binding result,binds

# Construct, isoform or probe ends are uncertain for at least one entry. Where cells or extracts were used, other partners may take part.
